Record: PubChem BioAssay AID1508597 (Cure First, 2020)
Shown is an unselected part of about 2,100 reagents tested. 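Calls flag viability under 80% in either arm, not effects specific to rucaparib; the reference for percent is not stated.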 A reagent listed more than once was tested more than once; the source does not tell the runs apart. Not stated in the record: the 100% reference.

Assay: 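Knock-downs altering ovarian cancer cell survival with or without PARP inhibitor rucaparib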 (primary screen)
Cell system: human ovarian carcinoma lines grown from tumours: OCI-P5x (papillary serous) and OCI-C5x (clear cell)
Reagent: siRNA pool against human genes, 1.25 pmol siRNA per well
Duration: 72 h or 96 h, depending on the cell culture
Conditions: rucaparib 20 µM (about IC30) or vehicle, present until read-out
Measurement: 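ATP luminescence measured at 72 or 96 h according to the culture, then normalised and expressed as percent viability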
Scale: viability, normalised: higher = more viable cells remaining
Call rule: 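Active when normalised viability falls below 80 percent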
Calls: active = viability under 80%; inactive = viability 80% or more

PRKAG2 (GeneID 51422), rucaparib or vehicle Rucaparib, cell line OCI-C5x (clear cell), technical replicate 1 showed viability, normalised (%) = 106; inactive.
For PRKAG2 (GeneID 51422), rucaparib or vehicle Rucaparib, cell line OCI-C5x (clear cell), technical replicate 1, the values are viability, normalised (%) = 49.1; active.
For PRKAG2 (GeneID 51422), rucaparib or vehicle Rucaparib, cell line OCI-C5x (clear cell), technical replicate 2 the deposit lists viability, normalised (%) = 57.4; active.
For PRKAG2 (GeneID 51422), rucaparib or vehicle Rucaparib, cell line OCI-C5x (clear cell), technical replicate 2 the deposit lists viability, normalised (%) = 78; active.
PRKAG2 (GeneID 51422), rucaparib or vehicle Rucaparib, cell line OCI-C5x (clear cell), technical replicate 3 scored viability, normalised (%) = 41.3; active.
PRKAG2 (GeneID 51422), rucaparib or vehicle Rucaparib, cell line OCI-C5x (clear cell), technical replicate 3 gave viability, normalised (%) = 54.8; active.
With PRKAG2 (GeneID 51422), rucaparib or vehicle Rucaparib, cell line OCI-P5x (serous), technical replicate 1, the entry reads viability, normalised (%) = 48.7; active.
With PRKAG2 (GeneID 51422), rucaparib or vehicle Rucaparib, cell line OCI-P5x (serous), technical replicate 1, the values are viability, normalised (%) = 95.4; inactive.
With PRKAG2 (GeneID 51422), rucaparib or vehicle Rucaparib, cell line OCI-P5x (serous), technical replicate 2 the deposit lists viability, normalised (%) = 97.9; inactive.
PRKAG2 (GeneID 51422), rucaparib or vehicle Rucaparib, cell line OCI-P5x (serous), technical replicate 2 scored viability, normalised (%) = 47.6; active.
PRKAG2 (GeneID 51422), rucaparib or vehicle Rucaparib, cell line OCI-P5x (serous), technical replicate 3 gave viability, normalised (%) = 54.6; active.
PRKAG2 (GeneID 51422), rucaparib or vehicle Rucaparib, cell line OCI-P5x (serous), technical replicate 3 showed viability, normalised (%) = 58.5; active.
PRKAG2 (GeneID 51422), rucaparib or vehicle Vehicle, cell line OCI-C5x (clear cell), technical replicate 1 showed viability, normalised (%) = 47.9; active.
For PRKAG2 (GeneID 51422), rucaparib or vehicle Vehicle, cell line OCI-C5x (clear cell), technical replicate 1, the values are viability, normalised (%) = 69.3; active.
PRKAG2 (GeneID 51422), rucaparib or vehicle Vehicle, cell line OCI-C5x (clear cell), technical replicate 2 gave viability, normalised (%) = 88.7; inactive.
For PRKAG2 (GeneID 51422), rucaparib or vehicle Vehicle, cell line OCI-C5x (clear cell), technical replicate 2, the entry reads viability, normalised (%) = 44.2; active.
PRKAG2 (GeneID 51422), rucaparib or vehicle Vehicle, cell line OCI-C5x (clear cell), technical replicate 3 gave viability, normalised (%) = 39; active.
With PRKAG2 (GeneID 51422), rucaparib or vehicle Vehicle, cell line OCI-C5x (clear cell), technical replicate 3, the values are viability, normalised (%) = 55.7; active.
PRKAG2 (GeneID 51422), rucaparib or vehicle Vehicle, cell line OCI-P5x (serous), technical replicate 1 scored viability, normalised (%) = 64.8; active.
PRKAG2 (GeneID 51422), rucaparib or vehicle Vehicle, cell line OCI-P5x (serous), technical replicate 1 scored viability, normalised (%) = 63.3; active.
PRKAG2 (GeneID 51422), rucaparib or vehicle Vehicle, cell line OCI-P5x (serous), technical replicate 2 scored viability, normalised (%) = 71.6; active.
PRKAG2 (GeneID 51422), rucaparib or vehicle Vehicle, cell line OCI-P5x (serous), technical replicate 2 gave viability, normalised (%) = 75.2; active.
With PRKAG2 (GeneID 51422), rucaparib or vehicle Vehicle, cell line OCI-P5x (serous), technical replicate 3, the values are viability, normalised (%) = 67.1; active.
PRKAG2 (GeneID 51422), rucaparib or vehicle Vehicle, cell line OCI-P5x (serous), technical replicate 3 gave viability, normalised (%) = 94.1; inactive.

The list goes on.
For ZC3HAV1 (GeneID 56829), rucaparib or vehicle Rucaparib, cell line OCI-C5x (clear cell), technical replicate 1, the entry reads viability, normalised (%) = 81.6; inactive.
With ZC3HAV1 (GeneID 56829), rucaparib or vehicle Rucaparib, cell line OCI-C5x (clear cell), technical replicate 2, the values are viability, normalised (%) = 72; active.
ZC3HAV1 (GeneID 56829), rucaparib or vehicle Rucaparib, cell line OCI-C5x (clear cell), technical replicate 3 gave viability, normalised (%) = 57.5; active.
With ZC3HAV1 (GeneID 56829), rucaparib or vehicle Rucaparib, cell line OCI-P5x (serous), technical replicate 1 the deposit lists viability, normalised (%) = 96.7; inactive.
ZC3HAV1 (GeneID 56829), rucaparib or vehicle Rucaparib, cell line OCI-P5x (serous), technical replicate 2 showed viability, normalised (%) = 74; active.
ZC3HAV1 (GeneID 56829), rucaparib or vehicle Rucaparib, cell line OCI-P5x (serous), technical replicate 3 gave viability, normalised (%) = 78.3; active.
ZC3HAV1 (GeneID 56829), rucaparib or vehicle Vehicle, cell line OCI-C5x (clear cell), technical replicate 1 scored viability, normalised (%) = 56.6; active.
With ZC3HAV1 (GeneID 56829), rucaparib or vehicle Vehicle, cell line OCI-C5x (clear cell), technical replicate 2 the deposit lists viability, normalised (%) = 70.6; active.
With ZC3HAV1 (GeneID 56829), rucaparib or vehicle Vehicle, cell line OCI-C5x (clear cell), technical replicate 3, the entry reads viability, normalised (%) = 70.4; active.
ZC3HAV1 (GeneID 56829), rucaparib or vehicle Vehicle, cell line OCI-P5x (serous), technical replicate 1 scored viability, normalised (%) = 99.6; inactive.
With ZC3HAV1 (GeneID 56829), rucaparib or vehicle Vehicle, cell line OCI-P5x (serous), technical replicate 2, the entry reads viability, normalised (%) = 63.9; active.
ZC3HAV1 (GeneID 56829), rucaparib or vehicle Vehicle, cell line OCI-P5x (serous), technical replicate 3 showed viability, normalised (%) = 115; inactive.
AUNIP (GeneID 79000), rucaparib or vehicle Rucaparib, cell line OCI-C5x (clear cell), technical replicate 1 showed viability, normalised (%) = 20.6; active.
With AUNIP (GeneID 79000), rucaparib or vehicle Rucaparib, cell line OCI-C5x (clear cell), technical replicate 2 the deposit lists viability, normalised (%) = 15.1; active.
AUNIP (GeneID 79000), rucaparib or vehicle Rucaparib, cell line OCI-C5x (clear cell), technical replicate 3 scored viability, normalised (%) = 19.5; active.
With AUNIP (GeneID 79000), rucaparib or vehicle Rucaparib, cell line OCI-P5x (serous), technical replicate 1, the entry reads viability, normalised (%) = 55.7; active.
AUNIP (GeneID 79000), rucaparib or vehicle Rucaparib, cell line OCI-P5x (serous), technical replicate 2 gave viability, normalised (%) = 60.4; active.
With AUNIP (GeneID 79000), rucaparib or vehicle Rucaparib, cell line OCI-P5x (serous), technical replicate 3, the values are viability, normalised (%) = 56.6; active.
AUNIP (GeneID 79000), rucaparib or vehicle Vehicle, cell line OCI-C5x (clear cell), technical replicate 1 showed viability, normalised (%) = 15.7; active.
For AUNIP (GeneID 79000), rucaparib or vehicle Vehicle, cell line OCI-C5x (clear cell), technical replicate 2, the entry reads viability, normalised (%) = 12; active.
AUNIP (GeneID 79000), rucaparib or vehicle Vehicle, cell line OCI-C5x (clear cell), technical replicate 3 scored viability, normalised (%) = 10; active.
For AUNIP (GeneID 79000), rucaparib or vehicle Vehicle, cell line OCI-P5x (serous), technical replicate 1, the entry reads viability, normalised (%) = 71.3; active.
AUNIP (GeneID 79000), rucaparib or vehicle Vehicle, cell line OCI-P5x (serous), technical replicate 2 showed viability, normalised (%) = 39.8; active.
AUNIP (GeneID 79000), rucaparib or vehicle Vehicle, cell line OCI-P5x (serous), technical replicate 3 gave viability, normalised (%) = 64.1; active.
